Data reported in PubChem BioAssay AID588497 (NMMLSC, 2011).
Hit rate of the full screen: of about 360,000 compounds, about 780 (0.22%) were called active. Inconclusive results, whose numbers are uncertain, are shown with a selection of clear calls. Cut-off read from the data, not from the text of the source: active = inhibition above about 35% (passing the limit was not always enough); inconclusive = no clear call, values can overlap the other calls.

system: Botulinum neurotoxin type F light chain protease (Clostridium botulinum); assay: BoNT/F light chain protease inhibitors, primary screen, biochemical, flow cytometry, MLPCN library (AID 588497); conditions: Multiplex microsphere protease cleavage assay, at 10 µM, stronger effect = higher value; note: plate controls were buffer without enzyme for full effect and enzyme alone for no effect

Structure (SMILES)	inhibition
CCN1CCN(c2oc(/C=C/c3ccccc3)nc2C#N)CC1	inconclusive: -91.4%
Cc1ccc(OCC(O)CNC2CCCC2)c(C)c1 (stereo not drawn)	inconclusive: -10.5%
CCOc1ccc2oc(-c3ccccc3)c(C(N)=O)c2c1	inactive: 4.4%
CNc1cccc(-c2ccc(N3CCN(C)CC3)nc2)n1	inactive: 0.5%
O=S(=O)(O)c1cccnc1SCc1ccccc1	inconclusive: 20.2%
CCOc1cc(S(=O)(=O)NCC2CCCO2)ccc1F (stereo not drawn)	inconclusive: 19.6%
COc1ccc(NC(=O)C(CC(=O)O)Cc2ccccc2)cc1 (stereo not drawn)	inactive: 3.3%
COc1cc(/C=C/C(=O)N2CCc3ccccc3C2)cc(OC)c1OC	inconclusive: -35.4%
C/C(Cl)=C\Cn1c(NCCc2ccccc2)nc2c1c(=O)n(C)c(=O)n2C	active: 35.6%
COc1ccc2[nH]c3c(c2c1)CCNC3(C)CCc1ccc(Cl)nc1 (stereo not drawn)	inactive: -10.7%
Cc1ccc(C)c(NC(=O)CN(C)C(=O)c2cccc(-n3cccc3)c2)c1	inconclusive: 6.9%
Cc1cc(C)cc(NC(=O)N2CCC(NC(=O)c3ccccc3C)CC2)c1	inconclusive: 10.7%
CC(=O)Oc1ccc(N2C(=O)CCC2=O)cc1	inconclusive: 10.2%
COc1ccc(-c2nnc(OC)c3ccccc23)cc1	active: 37.4%
O=C1c2cccc3cccc(c23)C(=O)C1(O)O	inconclusive: -1.4%
COc1cccc(N(CC(=O)NCCSCc2ccc(C)cc2)S(C)(=O)=O)c1	inconclusive: 22.5%
O=C(NC1CCCCC1)C(c1cccnc1)N(C(=O)CCl)c1ccccc1Cl (stereo not drawn)	active: 38.3%
Cc1ccc(N2Cc3ccccc3C2=O)cc1	inconclusive: 5.7%
CCCc1c(C(=O)N2CCN(c3ccccc3OC)CC2)cnn1-c1ccccc1	inconclusive: -56.8%
CC(C)c1ccccc1N=C1SCCCN1C(=O)c1cccc(N2C(=O)CCC2=O)c1	inconclusive: -6.6%
Cc1cnc(C(=O)NC2CC(C)(C)Cc3c2cnn3-c2cccc(F)c2)cn1 (stereo not drawn)	inactive: 0.9%

Structure (SMILES)	inhibition
Nc1ccc2nc(SCC(=O)c3ccccc3)sc2c1	inconclusive: -7%
CCOC(=O)CSc1nc(N)nc(C)c1Br	inconclusive: -30.2%
COc1ccc(C(=O)NNC(=O)c2cc3ccccc3cc2O)cc1	inconclusive: 30%
N#C/C(=C/c1ccc(N2CCCCC2)o1)c1cccc(F)c1	inactive: -17.7%
CC(C)(CC(=O)O)CC(=O)NCc1c(Cl)cccc1Oc1ccccc1	inconclusive: -19.8%
O=c1oc2ccc(Cl)cc2nc1/C=C(\O)c1ccco1	inconclusive: -36.2%
COc1ccc2c(c1)c(C(C)=O)c(C)n2-c1ccccc1OC	inconclusive: 8.7%
O=C(NCCC1CCCCN1S(=O)(=O)c1ccc(F)cc1)C(=O)NC1CC1 (stereo not drawn)	inconclusive: -7.9%
Cn1cc(-c2ccccc2C(=O)O)c(=O)c2ccccc21	inconclusive: -3.4%
COc1ccc(-c2cnc3n2CCCCC3)cc1	active: 41.6%
O=C(N/N=C/c1ccc(-c2ccccc2[N+](=O)[O-])o1)[C@H]1C[C@@H]1c1ccccc1	inactive: -0.5%
O=C(NCc1ccc(-c2csnn2)cc1)C1CC1	inconclusive: -11%
O=C(NCc1csc(-c2cccs2)n1)C1CC1	inconclusive: -14.5%
O=C(Nc1cccc(Cl)c1)c1ccc2ncsc2c1	inconclusive: -4.7%
N#CC(=C=[N-])/C=C(\C(=O)c1ccccc1)[n+]1ccccc1	inconclusive: 62.8%
COc1ccccc1NC(=O)Nn1cnnc1	inactive: -1.9%
CCc1noc(C)c1C(=O)OCC(=O)N(C)c1c(N)n(Cc2ccccc2)c(=O)[nH]c1=O	inconclusive: -4.4%
C(CCCN1CCCCC1)CCN1CCCCC1	inconclusive: 19.6%
C=CCn1c2ccccc2c2nn(C)c(=S)nc21	inactive: 23.8%
Cn1cnc2c1c(=O)n(Cc1cccc(F)c1)c(=O)n2C	inconclusive: 0.2%

Structure (SMILES)	inhibition
CC(C)c1ccc(NC(=O)C2CC(=O)N=C(N)S2)cc1 (stereo not drawn)	inconclusive: -11.6%
CSc1nnc(NC(=O)c2cc(=O)c3cc(C)cc(C)c3o2)s1	inconclusive: 27%
Cc1cc(C)c2nc(-c3ccccn3)cc(C(=O)n3cccn3)c2c1	inactive: -3.9%
N#CC1=C(N)Oc2cc(O)c(Cl)cc2C1c1ccccc1F (stereo not drawn)	inconclusive: -6.3%
O=C(NC1CCCCC1)Oc1cc2oc(=O)sc2cc1Br	inconclusive: -21.8%
CC(=O)c1cccc(NC(=O)NCCc2c[nH]c3ccccc23)c1	inconclusive: 33.6%
O=C(CSc1ncnc2c(-c3ccc(Cl)cc3)nsc12)c1ccccc1	inactive: -2.7%
COc1cccc(N=C(N)N)c1	inactive: 0.2%
C=CCn1c(-c2cccn(Cc3ccc(Cl)cc3)c2=O)n[nH]c1=S	inactive: -2.2%
CN(C)c1nc2c(c(=O)[nH]c(=O)n2C)n1Cc1ccccc1Br	inconclusive: 10.1%
COCC(=O)NC1CCCCCC1	inconclusive: -51.5%
Cc1ccc(S(=O)(=O)N2CCN(C(=O)CNC(=O)c3sc4ccccc4c3Cl)CC2)cc1	inactive: 13.1%
Cc1ccc(S(=O)(=O)CC(C)(O)CS(=O)(=O)c2ccc(C)cc2)cc1	inconclusive: 48%
CC1=CC(=O)N(c2ccc(C)cc2)C1c1ccc(Cl)cc1 (stereo not drawn)	inactive: 0.2%
Cc1cc([N+](=O)[O-])nn1Cc1ccccc1F	active: 35.3%
O=C(CCc1ccccc1)N1CCCC1	inconclusive: -36.5%
O=C(NC1CCCCC1)c1[nH]c(C(F)(F)F)nc1-c1ccccc1	inactive: 0.1%
CC(NS(=O)(=O)c1ccc(Br)cc1)C(=O)NCCc1ccccc1 (stereo not drawn)	inactive: 4.8%
CC(=O)N1CCN(c2ccc(NC(=S)NC(=O)c3ccc(C)c([N+](=O)[O-])c3)cc2)CC1	inconclusive: 0.6%
Nc1nnc(CC2=CCCCC2)s1	inactive: -2.9%
Cc1cc2c(sc3c(C)ccc(C)c32)c(C)n1	inconclusive: 19.6%

3 entries from above in a different format:

| Structure (SMILES) | inhibition |
| --- | --- |
| O=C(NC1CCCCC1)Oc1cc2oc(=O)sc2cc1Br | inconclusive: -21.8% |
| CC(=O)c1cccc(NC(=O)NCCc2c[nH]c3ccccc23)c1 | inconclusive: 33.6% |
| O=C(CSc1ncnc2c(-c3ccc(Cl)cc3)nsc12)c1ccccc1 | inactive: -2.7% |
